Laboratory results from patent US20030170310A1, “Tasteless, directly compressible, fast-dissolving complexes and pharmaceutical formulations thereof” (priority 2002, published 2003).

Assay: Stability studies
Format: physicochemical

- Stability: Stable
Structure (SMILES): CC(C)(C(=O)O)c1ccc(C(O)CCCN2CCC(C(O)(c3ccccc3)c3ccccc3)CC2)cc1.Cl (racemic) [Fexofenadine Hydrochloride, (±)-4-[1-hydroxy-4-[4-(hydroxydiphenylmethyl)-1-piperidinyl]-butyl]-α,α-dimethylbenzene acetic acid hydrochloride]
